Measurements as given in the supplement of paper PMC12819154, “High-throughput peptide-centric local stability assay extends protein–ligand identification to membrane proteins, tissues and bacteria” (Nature Structural & Molecular Biology, 2025).
This is one part of the list. Most values lie at the level of the controls, where differences are scatter.

Sequences of proteins named here, by UniProt entry; tags and fusion partners are left off. A change or cut given only in a name is not applied to a line headed by its entry.
UniProt P25748: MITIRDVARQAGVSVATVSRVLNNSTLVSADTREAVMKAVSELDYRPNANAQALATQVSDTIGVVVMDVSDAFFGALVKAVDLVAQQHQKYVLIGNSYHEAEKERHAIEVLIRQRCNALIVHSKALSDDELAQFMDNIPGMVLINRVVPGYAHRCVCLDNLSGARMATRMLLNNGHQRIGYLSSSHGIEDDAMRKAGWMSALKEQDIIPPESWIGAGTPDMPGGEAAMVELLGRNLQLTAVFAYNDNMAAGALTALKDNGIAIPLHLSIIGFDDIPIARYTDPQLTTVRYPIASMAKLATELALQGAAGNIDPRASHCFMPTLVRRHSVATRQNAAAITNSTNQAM
UniProt P31806: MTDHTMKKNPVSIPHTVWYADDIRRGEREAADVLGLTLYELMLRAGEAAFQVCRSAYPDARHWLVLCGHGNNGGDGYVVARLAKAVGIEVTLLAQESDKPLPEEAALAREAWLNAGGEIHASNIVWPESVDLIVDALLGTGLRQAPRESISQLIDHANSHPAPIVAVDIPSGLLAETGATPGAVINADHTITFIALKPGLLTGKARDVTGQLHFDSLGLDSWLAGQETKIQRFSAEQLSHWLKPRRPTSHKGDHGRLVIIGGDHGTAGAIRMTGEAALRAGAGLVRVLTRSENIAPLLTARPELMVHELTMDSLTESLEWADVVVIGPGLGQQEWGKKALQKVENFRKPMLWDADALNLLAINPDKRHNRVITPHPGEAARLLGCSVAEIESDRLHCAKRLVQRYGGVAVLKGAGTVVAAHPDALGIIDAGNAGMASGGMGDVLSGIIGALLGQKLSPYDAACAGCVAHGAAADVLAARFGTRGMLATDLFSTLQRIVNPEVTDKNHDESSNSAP
UniProt P32721: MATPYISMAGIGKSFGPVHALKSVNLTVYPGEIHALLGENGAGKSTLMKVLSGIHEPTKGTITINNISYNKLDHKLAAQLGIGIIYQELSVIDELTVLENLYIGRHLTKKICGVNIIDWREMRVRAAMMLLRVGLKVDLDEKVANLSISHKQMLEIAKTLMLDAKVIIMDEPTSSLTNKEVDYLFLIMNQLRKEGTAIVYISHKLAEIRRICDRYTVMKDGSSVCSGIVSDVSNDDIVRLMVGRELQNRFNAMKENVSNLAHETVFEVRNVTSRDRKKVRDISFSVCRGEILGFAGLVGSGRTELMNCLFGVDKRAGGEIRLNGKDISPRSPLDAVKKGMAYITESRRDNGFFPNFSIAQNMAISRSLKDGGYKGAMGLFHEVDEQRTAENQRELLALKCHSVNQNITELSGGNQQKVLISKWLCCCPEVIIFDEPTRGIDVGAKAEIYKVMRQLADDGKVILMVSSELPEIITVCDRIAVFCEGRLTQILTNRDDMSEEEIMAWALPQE
UniProt P33020: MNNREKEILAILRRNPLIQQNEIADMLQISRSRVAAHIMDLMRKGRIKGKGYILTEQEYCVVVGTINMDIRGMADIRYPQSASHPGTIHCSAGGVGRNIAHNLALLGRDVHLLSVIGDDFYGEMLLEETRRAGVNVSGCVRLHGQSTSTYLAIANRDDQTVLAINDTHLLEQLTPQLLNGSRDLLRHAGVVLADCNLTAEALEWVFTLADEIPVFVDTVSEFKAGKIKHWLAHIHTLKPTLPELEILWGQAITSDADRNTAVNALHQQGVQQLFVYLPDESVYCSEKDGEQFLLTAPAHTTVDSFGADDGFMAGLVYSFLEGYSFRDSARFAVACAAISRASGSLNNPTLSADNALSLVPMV
UniProt P33599: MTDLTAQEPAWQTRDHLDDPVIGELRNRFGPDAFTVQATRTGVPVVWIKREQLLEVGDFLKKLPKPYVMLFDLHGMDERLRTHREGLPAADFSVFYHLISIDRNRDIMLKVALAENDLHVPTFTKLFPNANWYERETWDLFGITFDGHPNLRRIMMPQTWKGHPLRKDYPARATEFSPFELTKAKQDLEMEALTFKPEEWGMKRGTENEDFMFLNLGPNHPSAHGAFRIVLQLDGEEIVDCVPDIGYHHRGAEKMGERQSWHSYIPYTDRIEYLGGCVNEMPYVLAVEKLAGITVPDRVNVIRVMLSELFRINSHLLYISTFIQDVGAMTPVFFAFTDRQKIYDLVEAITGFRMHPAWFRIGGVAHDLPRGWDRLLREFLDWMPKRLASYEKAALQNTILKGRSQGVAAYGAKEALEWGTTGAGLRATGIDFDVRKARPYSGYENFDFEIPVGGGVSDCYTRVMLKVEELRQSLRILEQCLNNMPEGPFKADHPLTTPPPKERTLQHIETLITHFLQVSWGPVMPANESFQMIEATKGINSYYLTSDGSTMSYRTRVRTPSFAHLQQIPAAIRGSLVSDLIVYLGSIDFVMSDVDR
UniProt P31808: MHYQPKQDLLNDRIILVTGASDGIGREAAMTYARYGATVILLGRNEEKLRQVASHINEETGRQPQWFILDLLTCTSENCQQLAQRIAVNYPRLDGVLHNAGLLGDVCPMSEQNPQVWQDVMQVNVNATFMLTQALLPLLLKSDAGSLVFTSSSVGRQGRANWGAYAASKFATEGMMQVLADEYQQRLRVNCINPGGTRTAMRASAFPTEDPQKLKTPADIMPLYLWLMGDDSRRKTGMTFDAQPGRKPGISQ
UniProt P28912: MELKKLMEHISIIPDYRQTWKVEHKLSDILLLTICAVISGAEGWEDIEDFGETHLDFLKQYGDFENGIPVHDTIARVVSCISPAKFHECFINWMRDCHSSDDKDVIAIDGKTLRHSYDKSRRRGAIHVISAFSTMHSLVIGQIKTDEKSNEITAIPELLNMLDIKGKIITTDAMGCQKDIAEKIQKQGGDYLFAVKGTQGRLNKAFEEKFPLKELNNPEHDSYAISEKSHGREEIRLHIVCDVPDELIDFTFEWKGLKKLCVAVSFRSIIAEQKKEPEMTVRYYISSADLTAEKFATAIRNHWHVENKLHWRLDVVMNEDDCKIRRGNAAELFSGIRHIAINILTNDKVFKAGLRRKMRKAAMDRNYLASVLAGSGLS
UniProt P30177: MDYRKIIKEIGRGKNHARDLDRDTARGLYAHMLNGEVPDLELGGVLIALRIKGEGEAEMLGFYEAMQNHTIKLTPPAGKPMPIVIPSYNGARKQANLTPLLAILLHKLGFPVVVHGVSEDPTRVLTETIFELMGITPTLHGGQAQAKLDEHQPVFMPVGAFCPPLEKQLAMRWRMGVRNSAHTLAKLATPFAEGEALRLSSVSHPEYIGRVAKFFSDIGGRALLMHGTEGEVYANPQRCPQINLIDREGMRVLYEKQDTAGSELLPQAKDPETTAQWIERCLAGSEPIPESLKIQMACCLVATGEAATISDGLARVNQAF
UniProt P32108: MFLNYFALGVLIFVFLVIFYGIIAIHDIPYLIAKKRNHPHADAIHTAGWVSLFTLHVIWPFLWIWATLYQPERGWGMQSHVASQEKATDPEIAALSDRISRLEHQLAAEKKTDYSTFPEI
UniProt P33634: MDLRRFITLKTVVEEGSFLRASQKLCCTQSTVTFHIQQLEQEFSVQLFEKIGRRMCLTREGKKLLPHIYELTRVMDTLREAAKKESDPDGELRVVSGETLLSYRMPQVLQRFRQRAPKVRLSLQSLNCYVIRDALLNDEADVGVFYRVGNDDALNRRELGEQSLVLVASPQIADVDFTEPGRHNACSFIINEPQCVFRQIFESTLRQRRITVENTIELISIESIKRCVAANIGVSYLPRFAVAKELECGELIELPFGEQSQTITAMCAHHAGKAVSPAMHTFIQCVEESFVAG
UniProt P31131: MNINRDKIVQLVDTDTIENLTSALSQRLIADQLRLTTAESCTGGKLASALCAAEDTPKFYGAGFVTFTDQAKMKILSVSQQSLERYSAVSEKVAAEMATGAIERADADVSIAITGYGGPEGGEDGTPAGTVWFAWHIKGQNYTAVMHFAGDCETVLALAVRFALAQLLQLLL
UniProt P33343: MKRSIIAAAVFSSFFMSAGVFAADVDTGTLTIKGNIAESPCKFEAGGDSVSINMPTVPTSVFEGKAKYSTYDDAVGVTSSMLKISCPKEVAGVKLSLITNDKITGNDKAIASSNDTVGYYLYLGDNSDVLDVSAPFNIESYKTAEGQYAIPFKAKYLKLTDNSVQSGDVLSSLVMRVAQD
UniProt P32176, whole entry: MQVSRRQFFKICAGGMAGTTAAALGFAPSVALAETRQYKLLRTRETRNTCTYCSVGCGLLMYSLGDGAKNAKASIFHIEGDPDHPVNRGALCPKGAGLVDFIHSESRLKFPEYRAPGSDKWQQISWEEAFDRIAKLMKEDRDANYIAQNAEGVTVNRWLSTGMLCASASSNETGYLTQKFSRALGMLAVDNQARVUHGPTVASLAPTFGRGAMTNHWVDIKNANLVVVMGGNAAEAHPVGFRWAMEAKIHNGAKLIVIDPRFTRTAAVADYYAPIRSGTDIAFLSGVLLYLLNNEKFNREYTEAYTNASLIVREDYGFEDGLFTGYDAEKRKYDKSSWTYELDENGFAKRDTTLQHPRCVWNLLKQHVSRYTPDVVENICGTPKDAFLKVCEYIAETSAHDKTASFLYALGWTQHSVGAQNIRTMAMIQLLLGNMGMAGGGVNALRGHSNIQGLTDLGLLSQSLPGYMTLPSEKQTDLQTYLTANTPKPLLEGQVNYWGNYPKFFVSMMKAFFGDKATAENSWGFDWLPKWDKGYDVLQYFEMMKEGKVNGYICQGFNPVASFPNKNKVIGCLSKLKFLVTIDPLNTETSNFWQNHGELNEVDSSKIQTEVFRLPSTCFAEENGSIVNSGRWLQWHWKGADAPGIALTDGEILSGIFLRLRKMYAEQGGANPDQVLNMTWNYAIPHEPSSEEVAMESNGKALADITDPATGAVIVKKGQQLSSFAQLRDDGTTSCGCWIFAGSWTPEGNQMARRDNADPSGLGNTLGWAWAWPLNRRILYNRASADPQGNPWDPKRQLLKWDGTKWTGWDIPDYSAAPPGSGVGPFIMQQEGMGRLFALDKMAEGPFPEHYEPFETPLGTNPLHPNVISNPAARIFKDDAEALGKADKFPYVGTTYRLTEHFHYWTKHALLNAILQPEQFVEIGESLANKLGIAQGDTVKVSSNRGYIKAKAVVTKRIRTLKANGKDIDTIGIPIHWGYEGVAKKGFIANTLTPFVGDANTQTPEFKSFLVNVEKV
UniProt P30015: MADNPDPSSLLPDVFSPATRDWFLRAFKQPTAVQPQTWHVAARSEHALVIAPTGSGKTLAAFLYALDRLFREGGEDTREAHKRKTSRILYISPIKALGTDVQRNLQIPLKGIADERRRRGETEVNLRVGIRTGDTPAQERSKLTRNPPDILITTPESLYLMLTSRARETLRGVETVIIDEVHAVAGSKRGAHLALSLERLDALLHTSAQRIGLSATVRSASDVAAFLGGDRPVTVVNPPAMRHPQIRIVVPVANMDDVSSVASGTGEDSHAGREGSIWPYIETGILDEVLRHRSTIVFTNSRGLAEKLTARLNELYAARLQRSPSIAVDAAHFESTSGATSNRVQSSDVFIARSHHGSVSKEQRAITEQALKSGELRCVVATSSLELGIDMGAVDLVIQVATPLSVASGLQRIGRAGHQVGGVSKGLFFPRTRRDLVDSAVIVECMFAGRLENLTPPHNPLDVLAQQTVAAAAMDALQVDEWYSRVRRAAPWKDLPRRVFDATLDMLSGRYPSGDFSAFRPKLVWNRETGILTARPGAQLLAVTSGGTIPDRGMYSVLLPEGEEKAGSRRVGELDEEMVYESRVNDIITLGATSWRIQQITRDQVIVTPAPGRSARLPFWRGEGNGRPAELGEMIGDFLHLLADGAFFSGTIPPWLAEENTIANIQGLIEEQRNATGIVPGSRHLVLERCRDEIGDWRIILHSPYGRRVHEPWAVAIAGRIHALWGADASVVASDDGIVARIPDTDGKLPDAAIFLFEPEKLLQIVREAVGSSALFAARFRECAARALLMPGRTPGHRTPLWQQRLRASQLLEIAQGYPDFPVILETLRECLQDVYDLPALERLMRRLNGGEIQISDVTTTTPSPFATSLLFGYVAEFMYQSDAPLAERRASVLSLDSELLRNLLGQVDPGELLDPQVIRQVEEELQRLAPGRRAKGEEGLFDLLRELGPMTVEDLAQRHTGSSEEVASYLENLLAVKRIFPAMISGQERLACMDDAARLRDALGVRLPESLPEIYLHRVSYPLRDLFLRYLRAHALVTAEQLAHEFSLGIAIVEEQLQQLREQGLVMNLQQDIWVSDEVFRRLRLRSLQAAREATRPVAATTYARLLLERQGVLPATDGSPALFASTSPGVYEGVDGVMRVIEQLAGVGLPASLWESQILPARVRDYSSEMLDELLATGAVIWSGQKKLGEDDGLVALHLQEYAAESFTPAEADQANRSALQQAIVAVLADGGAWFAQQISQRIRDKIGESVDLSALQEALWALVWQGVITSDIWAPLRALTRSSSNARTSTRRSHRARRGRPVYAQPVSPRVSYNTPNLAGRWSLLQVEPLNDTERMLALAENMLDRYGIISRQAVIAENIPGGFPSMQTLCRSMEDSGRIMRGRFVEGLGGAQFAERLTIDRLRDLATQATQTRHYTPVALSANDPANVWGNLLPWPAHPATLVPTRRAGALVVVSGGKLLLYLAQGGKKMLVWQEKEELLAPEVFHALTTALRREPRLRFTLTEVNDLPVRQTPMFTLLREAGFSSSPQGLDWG

compound: CC1(C)S[C@@H]2[C@H](NC(=O)[C@H](N)c3ccccc3)C(=O)N2[C@H]1C(=O)O [ampicillin]; assay: log2 fold change of tryptic peptide abundance, ligand vs vehicle (limited proteolysis) (log2 ratio); higher = more trypsin-susceptible (destabilized); settings: ligand concentration: 10 uM; sample: E. coli crude lysate

**Q.** How did the log2 fold change turn out when “UniProt P25748 (peptide sequence: MLLNNGHQR, peptide start residue: 170)” was run?
**A.** 0.243

**Q.** For “UniProt P31806 (peptide sequence: KNPVSIPHTVWYADDIR, peptide start residue: 8)”, which log2 fold change is on record?
**A.** -0.179

**Q.** With “UniProt P32674 (peptide sequence: EVEKYQNPR, peptide start residue: 600)” as the target, how does the log2 fold change read?
**A.** 0.911

**Q.** “UniProt P24183 (peptide sequence: ASADINGKPWDPKR, peptide start residue: 782)” was tested. Which log2 fold change did it give?
**A.** -0.783

**Q.** Which log2 fold change does the source give for “UniProt P30844 (peptide sequence: THHIDVAPLVAR, peptide start residue: 171)” here?
**A.** -0.107

**Q.** How did the log2 fold change turn out when “UniProt P32721 (peptide sequence: GEILGFAGLVGSGR, peptide start residue: 289)” was run?
**A.** 0.16

**Q.** How did the log2 fold change turn out when “UniProt P25741 (peptide sequence: EPLATLWR, peptide start residue: 6)” was run?
**A.** -0.205

**Q.** “UniProt P33020 (peptide sequence: FAVACAAISR, peptide start residue: 331)” was tested. Which log2 fold change did it give?
**A.** 0.257

**Q.** With “UniProt P25396 (peptide sequence: AVLMKAEDKE, peptide start residue: 321)” as the target, how does the log2 fold change read?
**A.** 0.299

**Q.** How did the log2 fold change turn out when “UniProt P27278 (peptide sequence: IKSPSAQKLEALHR, peptide start residue: 40)” was run?
**A.** -0.263

**Q.** For “UniProt P26365 (peptide sequence: LVVDLTENGKTEAVKR, peptide start residue: 98)”, which log2 fold change is on record?
**A.** 0.175

**Q.** How did the log2 fold change turn out when “UniProt P33599 (peptide sequence: IMMPQTWK, peptide start residue: 154)” was run?
**A.** -0.248

**Q.** For “UniProt P31808 (peptide sequence: TGMTFDAQPGRK, peptide start residue: 236)”, which log2 fold change is on record?
**A.** 0.43

**Q.** For “UniProt P28912 (peptide sequence: LDVVMNEDDCK, peptide start residue: 313)”, which log2 fold change is on record?
**A.** -0.783

**Q.** For “UniProt P30177 (peptide sequence: FFSDIGGR, peptide start residue: 214)”, which log2 fold change is on record?
**A.** 0.135

**Q.** “UniProt P32108 (peptide sequence: LEHQLAAEK, peptide start residue: 102)” was tested. Which log2 fold change did it give?
**A.** -0.106

**Q.** For “UniProt P33634 (peptide sequence: TVVEEGSFLR, peptide start residue: 11)”, which log2 fold change is on record?
**A.** -0.0922

**Q.** With “UniProt P31131 (peptide sequence: LASALCAAEDTPK, peptide start residue: 46)” as the target, how does the log2 fold change read?
**A.** -0.511

**Q.** For “UniProt P33343 (peptide sequence: LSLITNDKITGNDK, peptide start residue: 95)”, which log2 fold change is on record?
**A.** 0.156

**Q.** “UniProt P26459 (peptide sequence: YAPDMNHVTAAQYQAAMR, peptide start residue: 360)” was tested. Which log2 fold change did it give?
**A.** -0.37

**Q.** With “UniProt P27241 (peptide sequence: LQDISAEESKDMTRK, peptide start residue: 256)” as the target, how does the log2 fold change read?
**A.** 0.556

**Q.** For “UniProt P32176 (peptide sequence: DTTLQHPR, peptide start residue: 351)”, which log2 fold change is on record?
**A.** 0.466

**Q.** Which log2 fold change does the source give for “UniProt P30015 (peptide sequence: DQVIVTPAPGR, peptide start residue: 603)” here?
**A.** -0.397
